Results are given in words; binding and its absence hold for the method and conditions named. Some entries that bind do so weakly or less than the wild type.
Target: T1, MICB expressed on the membrane of CHO cells (human) (UniProt Q29980)
T1 sequence (looked up): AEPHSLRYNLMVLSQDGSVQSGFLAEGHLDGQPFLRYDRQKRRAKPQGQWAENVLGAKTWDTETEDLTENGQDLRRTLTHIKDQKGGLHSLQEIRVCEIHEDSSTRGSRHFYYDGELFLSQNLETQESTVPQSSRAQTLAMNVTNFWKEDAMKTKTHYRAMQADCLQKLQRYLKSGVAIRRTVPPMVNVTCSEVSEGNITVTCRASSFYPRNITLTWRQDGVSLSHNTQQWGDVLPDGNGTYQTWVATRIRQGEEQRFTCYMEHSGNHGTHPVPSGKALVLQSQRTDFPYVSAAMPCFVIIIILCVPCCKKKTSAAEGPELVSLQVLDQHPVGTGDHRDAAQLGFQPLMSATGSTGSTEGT
Test: binding of biotinylated protein to transfected CHO cells (FIG. 1C)

By UniProt entry, the sequences of proteins in these tests, tags left out. Residues count along the entry.
UniProt P26718, residues 73-216: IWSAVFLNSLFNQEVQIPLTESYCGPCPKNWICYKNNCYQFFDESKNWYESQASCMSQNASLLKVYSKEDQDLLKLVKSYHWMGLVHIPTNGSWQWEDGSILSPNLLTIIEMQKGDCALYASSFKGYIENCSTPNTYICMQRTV

binding: binds
Substance: biotinylated extracellular domain of NKG2D (from UniProt P26718 73-216) (receptor)
